Laboratory results as given in PubChem BioAssay (EPA / NIEHS).
Inconclusive means that the source gave no clear call. Such entries were picked first, then a sample of the others. A potency beside an inconclusive call is a rough fit, not a confirmed value. Where a structure was tested more than once in an assay, its records may differ in their call. Activity calls are given as the source filed them. How the source made its calls: active means hit-call score of the fitted dose curve at least 0.9, where 1 is the maximum; inconclusive means response in the unintended direction; inactive means score below 0.9.

Protein sequences, listed by entry. Tags and fused reporters are not part of them.
UniProt P03372, whole entry, looked up: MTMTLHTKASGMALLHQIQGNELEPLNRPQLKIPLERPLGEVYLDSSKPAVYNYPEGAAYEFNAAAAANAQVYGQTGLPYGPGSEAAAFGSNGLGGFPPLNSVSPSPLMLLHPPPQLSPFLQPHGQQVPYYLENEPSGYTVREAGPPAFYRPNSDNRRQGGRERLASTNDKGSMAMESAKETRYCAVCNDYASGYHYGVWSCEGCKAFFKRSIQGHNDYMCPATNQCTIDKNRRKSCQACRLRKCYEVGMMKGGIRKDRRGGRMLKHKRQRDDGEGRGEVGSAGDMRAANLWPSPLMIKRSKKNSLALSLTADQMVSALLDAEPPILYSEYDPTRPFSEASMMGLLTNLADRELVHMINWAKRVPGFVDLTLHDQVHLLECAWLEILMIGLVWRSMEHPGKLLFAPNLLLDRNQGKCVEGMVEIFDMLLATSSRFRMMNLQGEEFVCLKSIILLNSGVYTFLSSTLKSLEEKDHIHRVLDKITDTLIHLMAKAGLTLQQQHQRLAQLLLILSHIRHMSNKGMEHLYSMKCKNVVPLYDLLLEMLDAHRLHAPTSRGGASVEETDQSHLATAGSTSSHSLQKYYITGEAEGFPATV

These molecules were tested against Estrogen receptor (Homo sapiens) (UniProt P03372) (assay: NVS_NR_hER: NovaScreen (NVS) Nuclear Receptor Binding Assay for human Estrogen Receptor (ER) (AID 2283348)).
How it was run: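 MCF7-derived receptor extract, radiolabelled ligand, competitive displacement. Read: scintillation counts at 18 h. DMSO = negative control/baseline. Primary 25 uM duplicate; follow-up concentration–response.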

Row | Structure (SMILES) | AC50 | outcome
1 | O=C(c1ccc(O)cc1O)c1ccc(O)cc1O | active: 59.6 nM [middle of 4 runs] | –
2 | O=C1OC2(c3ccccc31)c1cc(Br)c(O)c(Br)c1Oc1c2cc(Br)c(O)c1Br | active: 16.8 µM | –
3 | CCCCCC(=O)O[C@]1(C(C)=O)CC[C@H]2[C@@H]3CCC4=CC(=O)CC[C@]4(C)[C@H]3CC[C@@]21C | inconclusive: 4.96 µM | –
4 | C=CCCCCCCCCC(=O)O | – | inactive
5 | O=C(OCC1CCC2OC2C1)C1CCC2OC2C1 (stereo not drawn) | inconclusive: 25 µM | –
6 | CCCCCCCCCCCCOC(=O)c1cc(O)c(O)c(O)c1 | inconclusive: 0.21 µM | –
7 | NC(=O)N1c2ccccc2C=Cc2ccccc21 | inconclusive: 1.87 µM | –
8 | O=c1c(O)c(-c2ccc(O)cc2O)oc2cc(O)cc(O)c12 | active: 4.3 µM | –
9 | CCCCC/C=C\C/C=C\CCCCCCCC(=O)OC | active: 6.14 µM | –
10 | C=C(C)C(=O)OCCC(F)(F)C(F)(F)C(F)(F)C(F)(F)C(F)(F)C(F)(F)F | inconclusive: 0.543 µM | –
11 | CC(C)=CCCC(C)CCO (stereo not drawn) | – | inactive
12 | Cc1c(C)c2c(c(C)c1O)CCC(C)(COc1ccc(CC3SC(=O)NC3=O)cc1)O2 (stereo not drawn) | – | inactive
13 | CC(C)=CCCC(C)=CC=O | – | inactive
14 | CCc1c(C(=O)NN2CCCCC2)nn(-c2ccc(Cl)cc2Cl)c1-c1ccc(Br)cc1 | inconclusive: 0.00229 µM | –
15 | CCCCCCCCCCO | inconclusive: 14 µM | –
16 | NC(=O)Nc1ccc(Cl)cc1 | inconclusive: 5.86 µM | –
17 | CC(C)C(C)(C)C(C)(C)C(C)(C)S | – | inactive
18 | CCOC(=O)/C=C\C(=O)OCC | inconclusive: 25 µM | –
19 | OC1CCCC1 | – | inactive
20 | CC(CC=O)CCCC(C)(C)O (stereo not drawn) | inconclusive: 6.66 µM | –
21 | CN1CCN(Cc2cc(-c3ccc4[nH]c(=O)oc4c3)co2)[C@@H](c2ccc(F)cc2)C1 | inconclusive: 0.0403 µM | –
22 | CC1(C)C(=O)NC(=O)N1CO | inconclusive: 0.205 µM | –
23 | O=C1C=CC(=O)N1c1ccc(Cc2ccc(N3C(=O)C=CC3=O)cc2)cc1 | – | inactive
24 | CCCCOC(=O)C(C)Oc1ccc(Oc2ccc(C(F)(F)F)cn2)cc1 (stereo not drawn) | inconclusive: 25 µM | –
25 | COc1ccc2sc(C(=O)Nc3nnn[nH]3)c(OC(C)C)c2c1 | – | inactive
26 | C=C1C[C@H]2[C@@H]3C=C(C)C4=CC(=O)CC[C@]4(C)[C@H]3CC[C@]2(C)[C@@]1(OC(C)=O)C(C)=O | active: 0.0185 µM | –
27 | Clc1ccccc1C(c1ccccc1)(c1ccccc1)n1ccnc1 | – | inactive
28 | Cc1cccc([N+](=O)[O-])c1C | inconclusive: 6.74 µM | –

Compounds from the list above that contain an NH in an aromatic ring (two):
Row | Structure (SMILES) | AC50 | outcome
21 | CN1CCN(Cc2cc(-c3ccc4[nH]c(=O)oc4c3)co2)[C@@H](c2ccc(F)cc2)C1 | inconclusive: 0.0403 µM | –
25 | COc1ccc2sc(C(=O)Nc3nnn[nH]3)c(OC(C)C)c2c1 | – | inactive
